Results on one substance are retold here after PMC8505401.

Sequences of proteins named here, by UniProt entry; tags and fusion partners are left off. Residues count along the entry.
UniProt P07996, residues 19-1170: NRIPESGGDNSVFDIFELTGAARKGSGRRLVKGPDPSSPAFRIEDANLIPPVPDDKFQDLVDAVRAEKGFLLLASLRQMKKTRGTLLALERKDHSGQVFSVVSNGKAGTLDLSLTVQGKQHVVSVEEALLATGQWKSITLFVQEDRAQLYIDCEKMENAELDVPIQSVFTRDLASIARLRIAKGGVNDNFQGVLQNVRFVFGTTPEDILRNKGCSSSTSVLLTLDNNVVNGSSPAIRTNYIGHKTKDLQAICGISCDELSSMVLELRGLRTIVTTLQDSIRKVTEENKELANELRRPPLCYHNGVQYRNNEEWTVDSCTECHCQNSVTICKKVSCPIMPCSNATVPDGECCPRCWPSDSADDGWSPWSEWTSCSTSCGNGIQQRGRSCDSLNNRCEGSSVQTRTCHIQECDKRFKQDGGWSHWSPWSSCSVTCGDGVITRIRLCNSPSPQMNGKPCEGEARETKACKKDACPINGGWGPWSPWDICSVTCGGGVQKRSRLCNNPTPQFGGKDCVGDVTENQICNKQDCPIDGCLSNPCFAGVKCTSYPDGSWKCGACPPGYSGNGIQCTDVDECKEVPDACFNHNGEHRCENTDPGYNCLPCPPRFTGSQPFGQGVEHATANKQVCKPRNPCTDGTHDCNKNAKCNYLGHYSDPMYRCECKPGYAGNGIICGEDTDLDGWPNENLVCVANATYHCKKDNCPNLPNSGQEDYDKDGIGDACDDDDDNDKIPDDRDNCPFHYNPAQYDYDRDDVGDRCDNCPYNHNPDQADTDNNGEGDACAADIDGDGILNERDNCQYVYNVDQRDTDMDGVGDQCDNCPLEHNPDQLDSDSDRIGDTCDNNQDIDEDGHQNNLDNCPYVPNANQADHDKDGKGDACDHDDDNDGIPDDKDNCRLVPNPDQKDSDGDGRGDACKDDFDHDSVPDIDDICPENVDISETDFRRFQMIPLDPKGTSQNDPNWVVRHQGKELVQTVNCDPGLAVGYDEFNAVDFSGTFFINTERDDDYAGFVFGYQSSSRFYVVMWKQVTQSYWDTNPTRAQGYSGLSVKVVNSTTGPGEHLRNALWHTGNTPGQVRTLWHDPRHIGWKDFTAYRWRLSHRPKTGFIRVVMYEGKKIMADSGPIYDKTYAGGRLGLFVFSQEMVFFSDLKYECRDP
UniProt P35579: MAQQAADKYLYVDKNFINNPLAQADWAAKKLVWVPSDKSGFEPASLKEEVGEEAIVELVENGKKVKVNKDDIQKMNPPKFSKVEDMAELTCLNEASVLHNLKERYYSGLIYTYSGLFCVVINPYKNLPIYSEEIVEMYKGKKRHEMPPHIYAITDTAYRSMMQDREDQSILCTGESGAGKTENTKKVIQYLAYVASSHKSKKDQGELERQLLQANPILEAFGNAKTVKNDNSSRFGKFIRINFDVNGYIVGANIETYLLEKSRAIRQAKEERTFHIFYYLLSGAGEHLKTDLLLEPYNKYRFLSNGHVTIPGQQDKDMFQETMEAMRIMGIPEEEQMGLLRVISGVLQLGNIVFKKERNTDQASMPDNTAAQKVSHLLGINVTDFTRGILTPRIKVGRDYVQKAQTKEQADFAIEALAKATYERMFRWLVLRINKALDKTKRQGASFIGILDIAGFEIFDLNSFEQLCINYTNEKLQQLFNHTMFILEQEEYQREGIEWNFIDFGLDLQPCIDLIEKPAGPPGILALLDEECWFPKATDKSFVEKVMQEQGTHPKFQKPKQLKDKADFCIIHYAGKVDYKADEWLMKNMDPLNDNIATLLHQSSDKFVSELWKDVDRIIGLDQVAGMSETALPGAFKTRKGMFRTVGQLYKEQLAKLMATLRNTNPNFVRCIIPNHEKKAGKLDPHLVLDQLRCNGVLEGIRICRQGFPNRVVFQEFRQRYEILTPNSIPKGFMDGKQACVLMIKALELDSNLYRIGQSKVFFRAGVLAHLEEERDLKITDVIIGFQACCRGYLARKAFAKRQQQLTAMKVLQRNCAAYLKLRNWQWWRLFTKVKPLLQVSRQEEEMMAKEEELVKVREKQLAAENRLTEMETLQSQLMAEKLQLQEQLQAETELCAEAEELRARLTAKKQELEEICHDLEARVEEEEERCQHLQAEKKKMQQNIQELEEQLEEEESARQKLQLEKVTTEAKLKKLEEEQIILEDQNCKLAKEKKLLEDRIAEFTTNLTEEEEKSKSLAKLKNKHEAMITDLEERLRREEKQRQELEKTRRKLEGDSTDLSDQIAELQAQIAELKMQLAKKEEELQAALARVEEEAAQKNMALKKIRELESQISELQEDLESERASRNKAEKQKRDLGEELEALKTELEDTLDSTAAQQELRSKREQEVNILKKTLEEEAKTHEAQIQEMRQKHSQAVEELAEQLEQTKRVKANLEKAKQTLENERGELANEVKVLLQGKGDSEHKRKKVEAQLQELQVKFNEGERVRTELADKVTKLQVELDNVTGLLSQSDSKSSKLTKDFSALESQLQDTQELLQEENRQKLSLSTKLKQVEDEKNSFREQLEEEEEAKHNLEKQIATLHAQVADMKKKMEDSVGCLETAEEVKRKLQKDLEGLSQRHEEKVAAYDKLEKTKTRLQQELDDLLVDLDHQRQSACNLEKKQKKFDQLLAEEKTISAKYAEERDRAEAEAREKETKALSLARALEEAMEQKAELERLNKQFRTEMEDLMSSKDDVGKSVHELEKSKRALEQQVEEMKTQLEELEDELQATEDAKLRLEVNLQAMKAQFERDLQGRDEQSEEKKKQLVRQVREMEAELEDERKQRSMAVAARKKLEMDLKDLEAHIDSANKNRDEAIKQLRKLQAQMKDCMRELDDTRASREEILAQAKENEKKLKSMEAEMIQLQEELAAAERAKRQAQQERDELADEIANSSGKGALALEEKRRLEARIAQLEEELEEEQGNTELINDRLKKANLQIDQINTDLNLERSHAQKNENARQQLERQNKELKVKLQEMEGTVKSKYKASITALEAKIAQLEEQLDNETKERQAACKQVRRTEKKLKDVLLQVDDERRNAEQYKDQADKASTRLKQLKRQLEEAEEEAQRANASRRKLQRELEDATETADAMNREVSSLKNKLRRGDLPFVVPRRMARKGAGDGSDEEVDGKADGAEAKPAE

Results are given in words; binding and its absence hold for the method and conditions named. In cells and extracts the contact can be indirect. Some binding calls cover weakened binding; strength is not graded here.

This assay concerns the target Thrombospondin 1 (human (endogenous in N14042)) (UniProt P07996). Briefly: co-IP; protein extracted from N14042 cells, magnetic beads with primary antibody (1:20), 4 °C overnight, western blot. (In general: In western blotting, separated proteins are transferred to a membrane and probed.)

“Myosin heavy chain 9 (from UniProt P35579 1-1960)”: the binding entry was “binds”.
